# Experimental data published in US8697839B2, “GQ protein competitive inhibitory polypeptides, preparation methods and uses thereof” (Third Military Medical University, priority 2008, dated 2014).
# Experiments:
# [1] = system: myocardial hypertrophy in mice induced by norepinephrine; assay: myocardial hypertrophy in mice induced by norepinephrine; assay type: in vivo; settings: x ± s
# Method: Fifty of the mice used in the experiment (purchased from Center for Experimental Animals, Third Military Medical University) was assigned into five groups with 10 mice per group. The mice in the control group were administrated with 0.1% ascorbic acid-3 mg % potassium sodium tartrate-physiological saline, The mice in the model group were administrated with 0.1% ascorbic acid-6 mg % norepinephrine bitartrate-physiological saline (equivalent to 1.5 mg/kg NE); The mice in three dosing groups were administrated with the pentadecapeptide, the heptacosapeptide, and the pantapentacontapeptide at 30 μg/kg respectively, while administration of 0.1% ascorbic acid—6 mg % norepinephrine bitartrate—physiological saline. The administration was performed consecutively by intraperitoneal injection (ip), twice a day (bid), for 15 days. The dosing volumes for each group were 50 ml/kg. Then, the animals were sacrificed by cervical dislocation. The heart was removed by thoracotomy, washed with the chilled physiological saline to get rid of blood stain, blotted with filter paper, weighed on a scale. The atriums and the right ventricle were carefully removed (with the interventricular septum left), and the left ventricle was weighed.
# [2] = system: myocardial hypertrophy in rats induced by norepinephrine; assay: myocardial hypertrophy in rats induced by norepinephrine; assay type: in vivo, Wistar rats; settings: polypeptide 15 μg/kg ip bid 20 days with norepinephrine; n = 6, x ± s
# Method: Thirty of Wistar rats were selected and assigned into five groups with 6 rats per group. The rats in the control group were administrated with 0.1% ascorbic acid-3 mg % potassium sodium tartrate-physiological saline; the rats in the model group were administrated with 0.1% ascorbic acid-6 mg % norepinephrine bitartrate-physiological saline; the rats in the three dosing groups were administrated with the pentadecapeptide, the heptacosapeptide, and the pantapentacontapeptide at 15 μg/kg respectively, while administration of norepinephrine. The dosing volume for each group was 33 ml/kg, and the administration was performed consecutively by ip, bid, for 20 days. At that time, the heart and left ventricle were weighed.
# [3] = system: rats with spontaneous hypertension (SHR); assay: myocardial remodeling and blood pressure in rats with spontaneous hypertension (SHR); assay type: in vivo, rat; settings: losartan 6 mg/kg intragastric qd, eight weeks, x ± s, n = 6
# Method: 1. Thirty 13-week-old rats with spontaneous hypertension (SHR, purchased from Beijing Vital River Laboratory Animal Technology Co. Ltd., Beijing) were selected and randomly assigned into five groups with 6 rats per group:
# SHR model group (Vehicle): 0.9% physiological saline, intraperitoneal injection at a dosage of 5 ml/kg, bid.
# Positive control group (losartan): potassium losartan at a dosage of 6 mg/kg, intragastric administration, qd.
# The pentadecapeptide group: administration of the pentadecapeptide at a dosage of 30 μg/kg by intraperitoneal injection, bid.
# The heptacosapeptide group: administration of the heptacosapeptide at a dosage of 30 μg/kg by intraperitoneal injection, bid.
# The pantapentacontapeptide group: administration of the pantapentacontapeptide at a dosage of 30 μg/kg by intraperitoneal injection, bid.
# Six of INKY (Wistar-Kyoto) rats (purchased from Center for Experimental Animals, Third Military Medical University) were additionally selected as the normal control.
# 2. Intervention with the drug was performed consecutively for eight weeks (from Week 14 to Week 21). The body weights of all the tested rats were obtained once every two weeks, and the administration dosage was adjustedbased on body weights.
compound,measurement,setting,value
"NC[C@H](O)c1ccc(O)c(O)c1 [NE, norepinephrine, reference compound]",BW (body weight),"[1]; NE model group: equivalent to 1.5 mg/kg NE ip bid 15 days, alone",23.2 ± 1.69 g
"Pentadecapeptide: SEQ ID NO: 9, obtained by deleting amino acid residues 1 to 40 at the N-terminal of SEQ ID NO: 1 (KDTILQLNLKEYNLV; listed as Homo sapiens)",BW (body weight),[1]; polypeptide 30 μg/kg ip bid 15 days with NE,23.6 ± 2.51 g
same,BW (body weight),[2],188 ± 12 g
"CCCCc1nc(Cl)c(CO)n1Cc1ccc(-c2ccccc2-c2nn[nH]n2)cc1 [Losartan, potassium losartan]",BW,[3],288 ± 9 g
